From publication PMC12040169 (PLOS Biology, 2025)
This is one part of the list.

Tested on: T1, CTL2-GFP (C. trachomatis L2/434/Bu, GFP-expressing)
T1 construct: L2/434/Bu, GFP-expressing
Parameters: species or system HeLa; Intracellular C. trachomatis growth in HeLa cells, bulk GFP fluorescence relative to DMSO
Conditions: bulk GFP, single well; 28.5 h, 10 µM; inhibitor

SMILES	% of control remaining [%]
Cc1cc2c(cc3c(=O)n(CC(=O)OC(C)C)nc(C)n32)s1 [CBK284071]	111.595
O=C(O)CCSc1nnc(-c2cccc(Br)c2)o1 [CBK286540]	120.51
O=C(Cn1cc(C(=O)NC2(c3ccccc3)CCCC2)ccc1=O)NC1CCCCC1 [CBK285986]	124.41
O=C(Nc1ccc2nc(SCc3ccc([N+](=O)[O-])cc3)sc2c1)c1ccccc1 [CBK263427]	119.808
COC(=O)[C@@H](C)NC(=O)[C@H]1CN(C(=O)Nc2ccccc2)CCN1C(=O)c1cccs1 [CBK289629]	141.728
O=C(COc1ccc(S(=O)(=O)NC2CCCC2)cc1)Nc1ccc2c(c1)OCCO2 [CBK266431]	134.838
CC(=O)Nc1ccc(Nc2nc(Br)cn3ccnc23)cc1 [CBK066338]	134.891
CCC(CC)C(=O)Nc1nc(OC)cnc1-c1cc(Cl)cc(Cl)c1 [CBK145338]	110.112
Cc1cccc(CC(=O)N2CCC(Cc3ccccc3-c3ccccc3)(C(N)=O)CC2)c1 [CBK285731]	121.511
Cc1cc(C)cc(C(=O)N2CCCC(C(=O)N3CCN(c4nccs4)CC3)C2)c1 (stereo not shown) [CBK298307]	104.768
O=C(c1cc(-c2ccncc2)nc2ccc(Cl)cc12)N1CCN(C/C=C/c2ccccc2)CC1 [CBK267754]	107.859
O=C(O)c1ccc(CNC(=O)c2ccc(Cl)c(S(=O)(=O)N3CCCC3)c2)cc1 [CBK297096]	170.793
Cc1cc(Cc2ccc(Cl)cc2)cc(C2CCN(C(=O)Cc3csc(C)n3)CC2)n1 [CBK286526]	107.467
CS(=O)(=O)N(Cc1cc2ccccc2nc1O)CC1CCCO1 (stereo not shown) [CBK269517]	144.969
C=CCO[C@@H]1C[C@H]2C(=O)N3CC[C@H](NC(=O)[C@@H](O)c4ccccc4)C[C@H]3C(=O)N2C1 [CBK289556]	128.707
O=[N+]([O-])c1ccc(O)c(/C=N/Nc2nc(Nc3ccc(Cl)cc3)nc(N3CCOCC3)n2)c1 [CBK260918]	110.618
Cn1c(=O)c2c(nc(CN3CCN(c4ccccc4)CC3)n2Cc2ccccc2)n(C)c1=O [CBK269557]	142.006
CCCCN(C)c1c(CC)nc2ccc(C(=O)NC3=NC(=O)CS3)cn12 [CBK145464]	92.9053
CCC(NC(=O)C(C)n1cc(Cl)cn1)c1ccc(OC)cc1 (stereo not shown) [CBK282029]	153.298
Cc1ccc(-c2noc([C@@H]3Cc4[nH]cnc4CN3C(=O)c3cccs3)n2)cc1 [CBK288957]	130.504
CCc1nc2ccc(C(=O)Nc3ccc(C(N)=O)cc3)cn2c1N(C)CCC(C)C [CBK145476]	120.547
O=C(O)c1cccc(CSCC(=O)N2CCC(Cc3ccccc3)CC2)c1 [CBK296675]	130.885
CC(=O)N1CC(C(=O)Nc2ccccc2Cc2ccccc2)Oc2ccccc21 (stereo not shown) [CBK297525]	123.342
COc1ccc(C(C)C)cc1-c1ccc(C(=O)N2CCN(C)CC2)c(N(C)C)n1 [CBK106130]	155.285
Cc1ccc(S(=O)(=O)CCC(=O)Nc2ccc3sc(C)nc3c2)cc1 [CBK287706]	110.381

SMILES	% of control remaining [%]
CC(C)(C)c1cc(C(C)(C)C)cc(S(=O)(=O)CCc2ccccn2)c1 [CBK261073]	102.298
CCNc1cc(-c2cccc(N)c2)ncn1 [CBK037731]	102.089
COc1ccccc1C(=O)N1CCC(Cc2ccc(-c3cccc(C)c3)cc2)(C(N)=O)CC1 [CBK285792]	104.59
C[N+](C)(C)C1=C([O-])c2ccccc2C1=O [CBK009824]	119.467
Clc1nccnc1N1CCCC1 [CBK083594]	122.313
N#Cc1ccccc1Cn1cc(C(=O)COc2ccccc2)c2ccccc21 [CBK268532]	137.661
CCOc1ccc(S(=O)(=O)NCCCN2CCOCC2)c2ccccc12 [CBK018421]	107.225
Fc1ccc(OCc2nn3cnnc3s2)cc1 [CBK287288]	138.907
C[C@H]1CNCCN1c1nccnc1Cl [CBK047524F]	111.845
CN(C)S(=O)(=O)c1ccc(CCC(=O)O)cc1 [CBK287216]	131.945
CCN(C(=O)CC1SC(NCC2CCCCC2)=NC1=O)c1ccccc1 (stereo not shown) [CBK067373]	132.416
C=CCn1c(Cc2csc(NC(=O)c3ccc(C(C)=O)s3)n2)n[nH]c1=S [CBK295299]	169.363
Cc1sc(-c2ccc(Cl)nc2)nc1OC(=O)c1cccs1 [CBK067733]	92.6367
O=S(=O)(Cc1ccccc1)Nc1cccc2[nH]ccc12 [CBK159490]	188.048
O=C(COc1ccccc1)NC1C(=O)N2C(C(=O)O)=C(Cl)CSC12 (stereo not shown) [CBK266903]	155.928
COc1ccc(NCc2cc(I)c(OCc3ccccc3)c(OC)c2)cc1 [CBK074452]	77.4571
O=C(NCC1COc2ccccc2O1)NC(=O)C1CCNCC1 (stereo not shown) [CBK051096]	118.731
Cc1c(C(=O)O)sc2c1c(=O)n(Cc1ccccc1)c(=O)n2CCN(C)C [CBK286590]	121.405
CC(=O)NC1=NC(=O)CN1C [CBK020181]	127.523
CCN1CCCCC1CNC(=O)c1cc(C2CC2)n[nH]1 (stereo not shown) [CBK282205]	126.499
O=C(c1ccc(-c2nccnc2N2CCN(CCO)CC2)cc1)N1CCOCC1 [CBK036812]	220.682
O=C(C1=C(O)C(=O)N(CCCn2ccnc2)C1c1ccncc1)c1ccccc1 (stereo not shown) [CBK264527]	133.525
O=C(Nc1cccc2nsnc12)c1ccc(Cl)cc1 [CBK263793]	122.597
COC(=O)c1ccc(NC(=O)CC2Sc3ccc(C(F)(F)F)cc3NC2=O)cc1 (stereo not shown) [CBK264645]	102.076

Molecules above containing a nitro group on carbon:
SMILES	% of control remaining [%]
O=C(Nc1ccc2nc(SCc3ccc([N+](=O)[O-])cc3)sc2c1)c1ccccc1 [CBK263427]	119.808
O=[N+]([O-])c1ccc(O)c(/C=N/Nc2nc(Nc3ccc(Cl)cc3)nc(N3CCOCC3)n2)c1 [CBK260918]	110.618
